This is one part of the list. Shown are side measurements of this screen, not its main read-out; they come without a call. Compounds called inactive in the main read-out are mostly missing here. Words in brackets tell the shape of the fitted curve; partial curves, single points and poor fits give uncertain potencies.
Assay: qHTS Assay to Find Inhibitors of Chronic Active B-Cell Receptor Signaling
Conditions: ABC-DLBCL IkBa-CBG/CBR reporter, luminescence ratio (green luciferase fused to IkBa over red control in TMD8 lymphoma cells), 4 h
How it was run: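 Cell line TMD8 (human ABC DLBCL), stably expressing tet-inducible CBG68-IkBa fusion and CBR; IMDM/0.5% FBS; cpd up to 46 uM; dox induction, 4 h, 37C/5% CO2; dual luminescence; green/red ratio; MG132 control.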

[1] = measured here: CBR red luminescence, cell number
[2] = measured here: IkBa-CBG green luminescence

Compound	AC50 [1]	AC50 [2]
COc1cc(C2SC(C)C(=O)N2CCc2ccccc2)cc(OC)c1OC (configuration not stated)	15.8 µM [falling, partial curve, poor fit]	–
COc1cc2nc(CN(C)Cc3ccc(C(C)(C)C)cc3)[nH]c(=O)c2cc1OC	15.8 µM [rising, single point]	–
Cc1ccc(-n2cccc2/C=N/n2cnnc2)cc1Cl	0.366 µM [rising, full curve, poor fit]	–
CC(=O)c1ccc(N2CCN(S(=O)(=O)c3c(C)[nH]c(C)c3C(=O)N3CCCC3)CC2)cc1	3.55 µM [rising, partial curve, poor fit]	–
CCc1ccc(OCC(=O)NCCOc2ccccc2)cc1	23.1 µM [rising, partial curve]	–
N#C/C(=C\c1cccs1)C(=O)Nc1nccs1	35.5 µM [falling, single point]	–
Cc1ccccc1NC(=O)Cn1nc(C)n2cccc2c1=O	35.5 µM [rising, single point]	–
CC1(C)Cc2nc3sc4c(=O)[nH]cnc4c3cc2CS1	1.16 µM [rising, partial curve, poor fit]	–
COc1ccc(Cl)cc1NC(=S)NCCSc1ccc(C)cc1	20.6 µM [falling, single point]	23.1 µM [rising, single point]
CC(C)OP(=O)(OC(C)C)/C(C=O)=N\Nc1ccc([N+](=O)[O-])cc1	3.16 µM [rising, partial curve, poor fit]	–
Clc1ccc(-c2c[n+](Cc3ccc(Cl)c(Cl)c3)c3n2CCC3)cc1	9.2 µM [falling, partial curve]	–
CC(=O)Nc1ccc2nc3ccccc3nc2c1	5.62 µM [falling, partial curve]	2.82 µM [rising, partial curve, poor fit]
Cc1ccc(C(C)C)c(OCC(=O)Nc2ccc3c(c2)nc(CN2CCCC2)n3C)c1	3.26 µM [falling, single point]	–
CCn1cnc2c1c(=O)n(Cc1csc(-c3ccccc3)n1)c(=O)n2Cc1ccccc1	15.8 µM [falling, single point]	–
Cc1cccc(-c2nc(Nc3cccc(O)c3)c3ccccc3n2)c1	12.6 µM [falling, single point]	–
Cc1ccc2c(CN3C(=O)NC(C)(c4ccc5c(c4)OCO5)C3=O)cc(=O)oc2c1 (configuration not stated)	35.5 µM [falling, single point]	–
CN(c1ccccc1C(=O)Nc1ccc2c(c1)OCO2)S(C)(=O)=O	29.1 µM [rising, single point]	–
Cc1cccc(NC(=O)CN2CCN(C(=O)c3ccc(OCc4cn5ccccc5n4)cc3)CC2)c1C	0.103 µM [rising, full curve, poor fit]	–
Cc1ccc(-c2nnn(CC(=O)NC3CC4CCC3C4)n2)cc1 (configuration not stated)	20.6 µM [rising, partial curve, poor fit]	–
COc1cccc(CNc2nc3nc(C)c(Cl)c(C)n3n2)c1	4.61 µM [falling, partial curve]	–

Compound	AC50 [1]	AC50 [2]
Cc1cc(C)cc(NC(=O)C(OC(=O)C2=COCCO2)c2ccccc2)c1 (configuration not stated)	32.6 µM [falling, partial curve, poor fit]	–
COc1ccc(-c2ccc(CCC(=O)O)n2Cc2ccco2)cc1	12.6 µM [rising, partial curve, poor fit]	–
CCc1noc(C)c1C(=O)N(CC)CC(=O)NCc1ccc(Cl)cc1	6.51 µM [rising, single point]	–
CCOC(=O)C1CCN(C(=O)COc2ccc3c(c2)OCO3)CC1	8.91 µM [falling, partial curve]	–
O=[N+]([O-])c1cccc(CN2CCN(c3cccc4[nH]ccc34)CC2)c1	5.01 µM [rising, single point]	–
CCCCNC(=O)Nc1nnc(-c2ccccc2)o1	7.31 µM [falling, partial curve]	–
Cc1csc(NC(=O)CCC(=O)N(CC(=O)NC2CCCC2)Cc2ccccc2)n1	10 µM [falling, partial curve]	–
Cc1cc2nc(-c3ccccn3)c(-c3ccccn3)nc2cc1C	1 µM [rising, full curve, poor fit]	–
COc1cc(OC)cc(C(=O)NCc2cc(C)nc3ccccc23)c1	–	20 µM [falling, partial curve, poor fit]
Cc1ccccc1NC(=O)CSc1nnc(-c2ccoc2C)n1CCc1ccccc1	11.2 µM [falling, partial curve, poor fit]	–
CCCCN(C)CCCNC(=O)C1(O)c2ccccc2NC(=O)N1c1ccc(Cl)cc1 (configuration not stated)	3.16 µM [falling, partial curve, poor fit]	–
O=C1C=C(c2ccc(Cl)c(C(F)(F)F)c2)C[C@@H](c2ccc(Cl)cc2)C1	0.0058 µM [rising, full curve, poor fit]	–
CCOc1ccc(/C=C/C(=O)NC2CCCCC2)cc1	11.2 µM [rising, single point]	–
COCCCNC(=S)N1CCC(NC(=O)Nc2ccc(C)cc2)CC1	3.98 µM [rising, full curve, poor fit]	–
COc1ccc2oc(C(=O)N3CCN(S(=O)(=O)c4cccc([N+](=O)[O-])c4)CC3)c(C)c2c1	14.1 µM [rising, partial curve, poor fit]	–
CC(=O)Oc1ccc2oc(C)c(C(=O)N3CCOCC3)c2c1	15.8 µM [rising, single point]	–
COc1ccc(S(=O)(=O)N2CCCCCC2)cc1NC(=O)CN1C(=O)NC(C)(c2ccc(C)cc2)C1=O (configuration not stated)	8.2 µM [rising, partial curve, poor fit]	–
O=C(Nc1ncc(Cc2cccc(Cl)c2)s1)C1CCCO1 (configuration not stated)	4.47 µM [rising, full curve]	–
CC(=O)Nc1nc(NC(=O)C(Cl)(Cl)Cl)n(-c2ccccc2)n1	0.631 µM [rising, full curve, poor fit]	–
C=CCNc1oc(/C=C/c2ccccc2)nc1C#N	2.24 µM [rising, partial curve, poor fit]	–

Reprinted at random: two entries already listed, in no set order.
Compound	AC50 [1]	AC50 [2]
COc1ccc(Cl)cc1NC(=S)NCCSc1ccc(C)cc1	20.6 µM [falling, single point]	23.1 µM [rising, single point]
CCc1noc(C)c1C(=O)N(CC)CC(=O)NCc1ccc(Cl)cc1	6.51 µM [rising, single point]	–
